{"source": "PubChem BioAssay AID1224828, NIAID, 2016", "screen": "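Regulators linking TLR4 signalling to p65 nuclear translocation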 (primary screen)", "cell system": "mouse RAW264.7 G9 macrophage reporter cells (GFP-p65, Tnf promoter-mCherry)", "knock-down reagent": "siRNA pool against mouse genes, 100 nM", "timing": "2 days siRNA transfection, then 40 min LPS before fixation", "challenge": "LPS (Salmonella minnesota R595) at 10 ng/ml", "measured": "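Imaged p65 nuclear translocation ratio, normalised to the plate median, converted to robust z-scores and averaged across two replicates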", "direction": "p65 translocation robust z-score: higher = more nuclear NF-kappaB p65 after LPS than the plate median; nuclear/cytoplasmic p65 ratio: higher = more nuclear NF-kappaB p65", "active means": "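Active if robust z is above 3.3 (negative regulators) or below -1.56, the Tlr4 control median (positive regulators); activity score 50 or more; control wells not called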", "meaning of the calls": "active = hit (p65 shift raised or lowered); inactive = no clear change", "note": "Shown is a random part of about 17,000 deposited reagents. 762 of all reagents (4.5%) count as active. 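Active calls include both raised and lowered p65 entry, mostly lowered; wells with fewer than 50 cells lack a z-score.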 Raw values are not corrected between plates."}
{"gene": "Or52m2", "p65 translocation robust z-score": 1.4, "nuclear/cytoplasmic p65 ratio, rep 1": 1.41, "nuclear/cytoplasmic p65 ratio, rep 2": 1.43, "low cell count flag": "enough cells to score", "Call": "inactive"}
{"gene": "Phlda2", "p65 translocation robust z-score": -0.45, "nuclear/cytoplasmic p65 ratio, rep 1": 1.43, "nuclear/cytoplasmic p65 ratio, rep 2": 1.35, "low cell count flag": "enough cells to score", "Call": "inactive"}
{"gene": "Mknk2", "p65 translocation robust z-score": -0.49, "nuclear/cytoplasmic p65 ratio, rep 1": 1.54, "nuclear/cytoplasmic p65 ratio, rep 2": 1.37, "low cell count flag": "enough cells to score", "Call": "inactive"}
{"gene": "Tsc2", "p65 translocation robust z-score": 1.19, "nuclear/cytoplasmic p65 ratio, rep 1": 1.65, "nuclear/cytoplasmic p65 ratio, rep 2": 1.7, "low cell count flag": "enough cells to score", "Call": "inactive"}
{"gene": "Csad", "p65 translocation robust z-score": -1.54, "nuclear/cytoplasmic p65 ratio, rep 1": 1.28, "nuclear/cytoplasmic p65 ratio, rep 2": 1.17, "low cell count flag": "enough cells to score", "Call": "inactive"}
{"gene": "Or8g54", "p65 translocation robust z-score": 0.59, "nuclear/cytoplasmic p65 ratio, rep 1": 1.4, "nuclear/cytoplasmic p65 ratio, rep 2": 1.31, "low cell count flag": "enough cells to score", "Call": "inactive"}
{"gene": "Mrgprd", "p65 translocation robust z-score": 1.18, "nuclear/cytoplasmic p65 ratio, rep 1": 1.81, "nuclear/cytoplasmic p65 ratio, rep 2": 1.62, "low cell count flag": "enough cells to score", "Call": "inactive"}
{"gene": "Or6c75", "nuclear/cytoplasmic p65 ratio, rep 1": 1.67, "nuclear/cytoplasmic p65 ratio, rep 2": 1.1, "low cell count flag": "fewer than 50 cells per well; well left out of scoring", "Call": "inactive"}
{"gene": "Zfp316", "p65 translocation robust z-score": -0.49, "nuclear/cytoplasmic p65 ratio, rep 1": 1.34, "nuclear/cytoplasmic p65 ratio, rep 2": 1.2, "low cell count flag": "enough cells to score", "Call": "inactive"}
{"gene": "Or14j5", "p65 translocation robust z-score": -0.94, "nuclear/cytoplasmic p65 ratio, rep 1": 1.47, "nuclear/cytoplasmic p65 ratio, rep 2": 1.29, "low cell count flag": "enough cells to score", "Call": "inactive"}
{"gene": "Hsph1", "p65 translocation robust z-score": -0.11, "nuclear/cytoplasmic p65 ratio, rep 1": 1.42, "nuclear/cytoplasmic p65 ratio, rep 2": 1.37, "low cell count flag": "enough cells to score", "Call": "inactive"}
{"gene": "Scgb2b2", "p65 translocation robust z-score": 0.15, "nuclear/cytoplasmic p65 ratio, rep 1": 1.57, "nuclear/cytoplasmic p65 ratio, rep 2": 1.76, "low cell count flag": "enough cells to score", "Call": "inactive"}
{"gene": "Or4a47", "p65 translocation robust z-score": 0.1, "nuclear/cytoplasmic p65 ratio, rep 1": 1.62, "nuclear/cytoplasmic p65 ratio, rep 2": 1.44, "low cell count flag": "enough cells to score", "Call": "inactive"}
{"gene": "Cmya5", "p65 translocation robust z-score": 0.02, "nuclear/cytoplasmic p65 ratio, rep 1": 1.36, "nuclear/cytoplasmic p65 ratio, rep 2": 1.62, "low cell count flag": "enough cells to score", "Call": "inactive"}

A few values from above:
Or14j5, nuclear/cytoplasmic p65 ratio, rep 2 = 1.29
Tsc2, nuclear/cytoplasmic p65 ratio, rep 2 = 1.7
Under “Call”, Zfp316 reads inactive
For “low cell count flag”, Or4a47 has enough cells to score

The list goes on:
{"gene": "Chst9", "p65 translocation robust z-score": 0.6, "nuclear/cytoplasmic p65 ratio, rep 1": 1.73, "nuclear/cytoplasmic p65 ratio, rep 2": 1.84, "low cell count flag": "enough cells to score", "Call": "inactive"}
{"gene": "Eci1", "p65 translocation robust z-score": -0.65, "nuclear/cytoplasmic p65 ratio, rep 1": 1.39, "nuclear/cytoplasmic p65 ratio, rep 2": 1.28, "low cell count flag": "enough cells to score", "Call": "inactive"}
{"gene": "Zfp146", "p65 translocation robust z-score": 0.39, "nuclear/cytoplasmic p65 ratio, rep 1": 1.6, "nuclear/cytoplasmic p65 ratio, rep 2": 1.52, "low cell count flag": "enough cells to score", "Call": "inactive"}
{"gene": "Or8k18", "p65 translocation robust z-score": -0.05, "nuclear/cytoplasmic p65 ratio, rep 1": 1.7, "nuclear/cytoplasmic p65 ratio, rep 2": 1.53, "low cell count flag": "enough cells to score", "Call": "inactive"}
{"gene": "Pmvk", "p65 translocation robust z-score": 0.84, "nuclear/cytoplasmic p65 ratio, rep 1": 1.65, "nuclear/cytoplasmic p65 ratio, rep 2": 1.48, "low cell count flag": "enough cells to score", "Call": "inactive"}
{"gene": "Sp4", "p65 translocation robust z-score": -0.25, "nuclear/cytoplasmic p65 ratio, rep 1": 1.53, "nuclear/cytoplasmic p65 ratio, rep 2": 1.5, "low cell count flag": "enough cells to score", "Call": "inactive"}
{"gene": "Ptpn5", "p65 translocation robust z-score": -0.56, "nuclear/cytoplasmic p65 ratio, rep 1": 1.66, "nuclear/cytoplasmic p65 ratio, rep 2": 1.25, "low cell count flag": "enough cells to score", "Call": "inactive"}
